Where two headings read alike, the source gives them in different places. These are yes or no findings as the source states them, for the method shown. Binding seen in cells or lysates may run through a third protein. Some results given as binding are weak or reduced against the parent protein; the word gives no strength. Sequences can lack the tags named with a protein.
Legend:
[1] = biological target: T1, soluble CD72 (extracellular part of human CD72, amino acids 117-359, V5 and 8xHis tagged) (human) (UniProt P21854); assay: co-IP; anti-V5 tag mAb magnetic beads with concentrated sCD72 conditioned media or control media and activated CD4+ T cells or their lysate, 4°C; washed in 50 mM Tris-HCl pH 7.5, 150 mM NaCl, 0.05% NP-40; elution with V5 peptide; western blot
T1 sequence: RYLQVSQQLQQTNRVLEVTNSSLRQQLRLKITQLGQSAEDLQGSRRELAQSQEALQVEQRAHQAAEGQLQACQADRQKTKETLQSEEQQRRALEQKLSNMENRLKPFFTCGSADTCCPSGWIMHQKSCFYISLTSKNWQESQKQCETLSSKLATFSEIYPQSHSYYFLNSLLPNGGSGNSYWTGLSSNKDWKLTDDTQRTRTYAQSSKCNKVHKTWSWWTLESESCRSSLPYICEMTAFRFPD

By UniProt entry, the sequences of proteins in these tests, tags left out. Residues count along the entry.
UniProt Q92854, residues 22-862: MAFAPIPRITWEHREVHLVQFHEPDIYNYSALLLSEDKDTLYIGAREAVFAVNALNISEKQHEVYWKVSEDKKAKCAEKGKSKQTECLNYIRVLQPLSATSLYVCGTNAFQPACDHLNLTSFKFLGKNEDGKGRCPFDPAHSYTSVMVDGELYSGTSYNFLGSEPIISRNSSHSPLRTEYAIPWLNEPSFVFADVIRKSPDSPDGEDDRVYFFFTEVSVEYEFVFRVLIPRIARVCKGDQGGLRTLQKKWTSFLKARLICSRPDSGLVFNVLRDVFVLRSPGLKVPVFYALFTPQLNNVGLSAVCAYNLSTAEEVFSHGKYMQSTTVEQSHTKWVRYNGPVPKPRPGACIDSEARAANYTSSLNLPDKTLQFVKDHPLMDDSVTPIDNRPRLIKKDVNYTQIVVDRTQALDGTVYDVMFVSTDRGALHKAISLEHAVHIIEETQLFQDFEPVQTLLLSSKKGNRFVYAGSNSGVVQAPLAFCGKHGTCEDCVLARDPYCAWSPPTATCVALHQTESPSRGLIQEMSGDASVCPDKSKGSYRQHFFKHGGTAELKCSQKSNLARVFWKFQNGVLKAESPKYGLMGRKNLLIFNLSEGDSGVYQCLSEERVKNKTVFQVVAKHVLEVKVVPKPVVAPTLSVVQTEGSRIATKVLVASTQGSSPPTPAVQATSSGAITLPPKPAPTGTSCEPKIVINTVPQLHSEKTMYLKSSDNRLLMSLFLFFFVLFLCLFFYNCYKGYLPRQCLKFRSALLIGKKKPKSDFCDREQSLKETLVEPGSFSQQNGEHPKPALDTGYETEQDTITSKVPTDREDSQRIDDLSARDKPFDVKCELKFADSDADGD

[2] = biological target: T1, soluble CD72 (extracellular part of human CD72, amino acids 117-359, V5 and 8xHis tagged) (human); assay: as above; remark: listed apart in the source

CD100/Sema4D (from UniProt Q92854 22-862)
binding [1]: no binding

B1: CD6 (receptor, UniProt P30203 18-668)
chain: HPSPAPPDQLNTSSAESELWEPGERLPVRLTNGSSSCSGTVEVRLEASWEPACGALWDSRAAEAVCRALGCGGAEAASQLAPPTPELPPPPAAGNTSVAANATLAGAPALLCSGAEWRLCEVVEHACRSDGRRARVTCAENRALRLVDGGGACAGRVEMLEHGEWGSVCDDTWDLEDAHVVCRQLGCGWAVQALPGLHFTPGRGPIHRDQVNCSGAEAYLWDCPGLPGQHYCGHKEDAGAVCSEHQSWRLTGGADRCEGQVEVHFRGVWNTVCDSEWYPSEAKVLCQSLGCGTAVERPKGLPHSLSGRMYYSCNGEELTLSNCSWRFNNSNLCSQSLAARVLCSASRSLHNLSTPEVPASVQTVTIESSVTVKIENKESRELMLLIPSIVLGILLLGSLIFIAFILLRIKGKYALPVMVNHQHLPTTIPAGSNSYQPVPITIPKEVFMLPIQVQAPPPEDSDSGSDSDYEHYDFSAQPPVALTTFYNSQRHRVTDEEVQQSRFQMPPLEEGLEELHASHIPTANPGHCITDPPSLGPQYHPRSNSESSTSSGEDYCNSPKSKLPPWNPQVFSSERSSFLEQPPNLELAGTQPAFSAGPPADDSSSTSSGEWYQNFQPPPQPPSEEQFGCPGSPSPQPDSTDNDDYDDISAA
binding [2]: binds

— publication PMC11254670, “Soluble CD72, is a T-cell activator probably via binding to CD6 in homeostasis and autoimmunity” (Frontiers in Immunology, 2024)
